Earlier results, collected in patent US20130347140A1, “High Rebaudioside-A Plant and Methods of Producing the Same and Uses Thereof” (priority 2010, published 2013).

Details: sensory
For `C=C1C[C@@]23CC[C@H]4[C@@](C)(CCC[C@@]4(C)C(=O)O)[C@@H]2CC[C@]1(O)C3` [Steviol], the Quality of taste is given as “Very bitter”. For `C=C1C[C@@]23CC[C@H]4[C@@](C)(CCC[C@@]4(C)C(=O)O[C@@H]4O[C@H](CO)[C@@H](O)[C@H](O)[C@H]4O[C@@H]4O[C@H](CO)[C@@H](O)[C@H](O)[C@H]4O)[C@@H]2CC[C@]1(O[C@@H]1O[C@H](CO)[C@@H](O)[C@H](O[C@@H]2O[C@H](CO)[C@@H](O)[C@H](O)[C@H]2O)[C@H]1O[C@@H]1O[C@H](CO)[C@@H](O)[C@H](O)[C@H]1O)C3` [Rebaudioside D], the Quality of taste is listed as “Like sucrose”. For Rebaudioside B, the Quality of taste is listed as “Bitter”. For `C=C1C[C@@]23CC[C@H]4[C@@](C)(CCC[C@@]4(C)C(=O)O[C@@H]4O[C@H](CO)[C@@H](O)[C@H](O)[C@H]4O)[C@@H]2CC[C@]1(O[C@@H]1O[C@H](CO)[C@@H](O)[C@H](O)[C@H]1O[C@@H]1O[C@@H](C)[C@H](O)[C@@H](O)[C@H]1O)C3` [Dulcoside A], the Quality of taste is listed as “Very bitter”. For Rebaudioside C, the Quality of taste is listed as “Bitter”. For `C=C1C[C@@]23CC[C@H]4[C@@](C)(CCC[C@@]4(C)C(=O)O[C@@H]4O[C@H](CO)[C@@H](O)[C@H](O)[C@H]4O[C@@H]4O[C@H](CO)[C@@H](O)[C@H](O)[C@H]4O)[C@@H]2CC[C@]1(O[C@@H]1O[C@H](CO)[C@@H](O)[C@H](O)[C@H]1O[C@@H]1O[C@H](CO)[C@@H](O)[C@H](O)[C@H]1O)C3` [Rebaudioside E], the Quality of taste is given as “Like sucrose”. For `C=C1C[C@@]23CC[C@H]4[C@@](C)(CCC[C@@]4(C)C(=O)O[C@@H]4O[C@H](CO)[C@@H](O)[C@H](O)[C@H]4O)[C@@H]2CC[C@]1(O[C@@H]1O[C@H](CO)[C@@H](O)[C@H](O)[C@H]1O[C@@H]1O[C@H](CO)[C@@H](O)[C@H](O)[C@H]1O)C3` [Stevioside], the Quality of taste is listed as “Bitter”. For `C=C1C[C@@]23CC[C@H]4[C@@](C)(CCC[C@@]4(C)C(=O)O[C@@H]4O[C@H](CO)[C@@H](O)[C@H](O)[C@H]4O)[C@@H]2CC[C@]1(O[C@@H]1O[C@H](CO)[C@@H](O)[C@H](O)[C@H]1O)C3` [Rubusoside], the Quality of taste is listed as “Very bitter”. In the case of `C=C1C[C@@]23CC[C@H]4[C@@](C)(CCC[C@@]4(C)C(=O)O)[C@@H]2CC[C@]1(O[C@@H]1O[C@H](CO)[C@@H](O)[C@H](O)[C@H]1O[C@@H]1O[C@H](CO)[C@@H](O)[C@H](O)[C@H]1O)C3` [Steviolbioside], the Quality of taste is given as “Unpleasant”.

Same assay, conditions: sensory; listed as RA
In the case of `C=C1C[C@@]23CC[C@H]4[C@@](C)(CCC[C@@]4(C)C(=O)O[C@@H]4O[C@H](CO)[C@@H](O)[C@H](O)[C@H]4O)[C@@H]2CC[C@]1(O[C@@H]1O[C@H](CO)[C@@H](O)[C@H](O[C@@H]2O[C@H](CO)[C@@H](O)[C@H](O)[C@H]2O)[C@H]1O[C@@H]1O[C@H](CO)[C@@H](O)[C@H](O)[C@H]1O)C3` [Rebaudioside A], the Quality of taste is given as “sweetness flavour comparable to sucrose”.
